Measurements: publication doi:10.1101/2022.04.27.489801
Results are given in words; binding and its absence hold for the method and conditions named. Binding seen in cells or lysates may run through a third protein. Some binding calls cover weakened binding; strength is not graded here.

Amino acid sequences for entries named in this document (tags omitted).
UniProt Q61188: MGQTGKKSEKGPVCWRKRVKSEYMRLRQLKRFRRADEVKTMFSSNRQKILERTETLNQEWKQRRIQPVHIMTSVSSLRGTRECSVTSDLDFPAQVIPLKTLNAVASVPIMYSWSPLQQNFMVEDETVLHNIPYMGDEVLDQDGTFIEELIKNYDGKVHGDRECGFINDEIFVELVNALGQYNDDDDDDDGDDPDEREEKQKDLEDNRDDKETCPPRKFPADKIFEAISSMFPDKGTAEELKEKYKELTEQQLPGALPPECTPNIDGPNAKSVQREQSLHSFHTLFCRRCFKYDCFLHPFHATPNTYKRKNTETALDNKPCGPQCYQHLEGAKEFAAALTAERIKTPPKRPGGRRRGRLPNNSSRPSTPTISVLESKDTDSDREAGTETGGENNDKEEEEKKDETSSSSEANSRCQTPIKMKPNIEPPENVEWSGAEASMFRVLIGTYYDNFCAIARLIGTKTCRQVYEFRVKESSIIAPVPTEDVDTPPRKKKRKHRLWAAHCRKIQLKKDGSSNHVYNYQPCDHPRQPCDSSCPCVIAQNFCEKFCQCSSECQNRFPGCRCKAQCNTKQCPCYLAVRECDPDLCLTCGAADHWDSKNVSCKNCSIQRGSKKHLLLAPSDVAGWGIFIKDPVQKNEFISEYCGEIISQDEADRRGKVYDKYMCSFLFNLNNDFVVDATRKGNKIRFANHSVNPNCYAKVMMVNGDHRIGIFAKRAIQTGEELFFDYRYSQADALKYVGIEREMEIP
UniProt B2RWS6: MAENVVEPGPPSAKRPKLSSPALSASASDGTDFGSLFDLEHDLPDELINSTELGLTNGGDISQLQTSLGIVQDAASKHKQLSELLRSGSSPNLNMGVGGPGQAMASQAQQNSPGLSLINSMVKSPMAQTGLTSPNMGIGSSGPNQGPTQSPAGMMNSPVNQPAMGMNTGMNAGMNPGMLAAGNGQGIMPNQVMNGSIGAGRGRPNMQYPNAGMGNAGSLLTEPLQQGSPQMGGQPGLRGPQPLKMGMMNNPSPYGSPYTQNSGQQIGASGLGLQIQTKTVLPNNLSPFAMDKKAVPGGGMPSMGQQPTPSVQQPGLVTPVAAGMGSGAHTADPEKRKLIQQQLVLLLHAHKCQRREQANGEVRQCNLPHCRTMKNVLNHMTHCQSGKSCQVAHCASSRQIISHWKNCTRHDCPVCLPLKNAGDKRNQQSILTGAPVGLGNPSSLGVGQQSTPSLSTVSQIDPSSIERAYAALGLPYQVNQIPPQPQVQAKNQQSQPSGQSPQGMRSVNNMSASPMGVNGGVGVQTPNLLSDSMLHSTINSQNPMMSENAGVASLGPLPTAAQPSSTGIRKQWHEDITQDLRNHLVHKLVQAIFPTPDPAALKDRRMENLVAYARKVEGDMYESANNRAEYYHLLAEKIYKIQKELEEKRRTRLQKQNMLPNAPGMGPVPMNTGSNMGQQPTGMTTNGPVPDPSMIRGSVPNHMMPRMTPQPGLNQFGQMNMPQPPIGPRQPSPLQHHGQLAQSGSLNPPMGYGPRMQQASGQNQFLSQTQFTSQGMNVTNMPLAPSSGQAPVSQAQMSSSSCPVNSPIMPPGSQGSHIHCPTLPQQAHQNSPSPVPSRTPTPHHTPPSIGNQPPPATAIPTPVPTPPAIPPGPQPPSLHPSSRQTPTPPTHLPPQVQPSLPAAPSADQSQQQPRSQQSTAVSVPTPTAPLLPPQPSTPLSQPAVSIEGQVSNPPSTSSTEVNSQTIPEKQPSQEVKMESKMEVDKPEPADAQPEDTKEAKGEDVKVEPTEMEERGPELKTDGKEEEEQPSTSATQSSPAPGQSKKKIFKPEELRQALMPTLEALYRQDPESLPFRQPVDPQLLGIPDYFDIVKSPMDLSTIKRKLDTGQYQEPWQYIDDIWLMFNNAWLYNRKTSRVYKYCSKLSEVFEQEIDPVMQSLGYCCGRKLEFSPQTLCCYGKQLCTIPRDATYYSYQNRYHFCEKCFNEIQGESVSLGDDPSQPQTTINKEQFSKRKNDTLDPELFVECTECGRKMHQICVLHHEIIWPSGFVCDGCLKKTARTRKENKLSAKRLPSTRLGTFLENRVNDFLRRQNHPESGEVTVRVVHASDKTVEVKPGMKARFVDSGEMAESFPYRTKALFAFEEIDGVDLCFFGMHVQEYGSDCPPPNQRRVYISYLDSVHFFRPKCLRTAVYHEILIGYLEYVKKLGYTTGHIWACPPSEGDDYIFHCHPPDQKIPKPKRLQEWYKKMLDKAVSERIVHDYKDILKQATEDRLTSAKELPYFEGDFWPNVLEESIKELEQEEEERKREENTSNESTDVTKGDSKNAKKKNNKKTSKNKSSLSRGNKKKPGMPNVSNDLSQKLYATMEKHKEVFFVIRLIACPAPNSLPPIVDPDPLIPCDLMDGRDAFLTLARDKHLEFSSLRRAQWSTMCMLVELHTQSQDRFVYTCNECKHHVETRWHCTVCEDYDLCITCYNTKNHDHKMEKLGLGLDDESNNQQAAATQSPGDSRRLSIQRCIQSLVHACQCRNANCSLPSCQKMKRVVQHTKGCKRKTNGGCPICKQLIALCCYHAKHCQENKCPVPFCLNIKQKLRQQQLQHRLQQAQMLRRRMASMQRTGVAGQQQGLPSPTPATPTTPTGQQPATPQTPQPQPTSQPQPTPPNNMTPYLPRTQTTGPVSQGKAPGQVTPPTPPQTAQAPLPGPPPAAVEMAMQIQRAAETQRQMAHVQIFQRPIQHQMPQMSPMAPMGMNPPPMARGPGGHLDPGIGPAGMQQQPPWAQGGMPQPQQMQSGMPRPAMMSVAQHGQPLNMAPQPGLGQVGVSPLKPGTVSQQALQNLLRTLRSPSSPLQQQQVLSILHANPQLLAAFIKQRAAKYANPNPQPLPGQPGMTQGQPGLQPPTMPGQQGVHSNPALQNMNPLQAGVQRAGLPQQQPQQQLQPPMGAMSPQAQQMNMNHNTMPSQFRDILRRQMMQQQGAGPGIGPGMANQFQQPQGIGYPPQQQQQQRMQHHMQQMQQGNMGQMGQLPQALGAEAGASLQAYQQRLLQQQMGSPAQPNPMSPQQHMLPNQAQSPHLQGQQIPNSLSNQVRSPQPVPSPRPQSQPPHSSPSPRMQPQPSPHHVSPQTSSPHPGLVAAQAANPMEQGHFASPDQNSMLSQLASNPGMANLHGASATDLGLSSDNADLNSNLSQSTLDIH
UniProt P45481: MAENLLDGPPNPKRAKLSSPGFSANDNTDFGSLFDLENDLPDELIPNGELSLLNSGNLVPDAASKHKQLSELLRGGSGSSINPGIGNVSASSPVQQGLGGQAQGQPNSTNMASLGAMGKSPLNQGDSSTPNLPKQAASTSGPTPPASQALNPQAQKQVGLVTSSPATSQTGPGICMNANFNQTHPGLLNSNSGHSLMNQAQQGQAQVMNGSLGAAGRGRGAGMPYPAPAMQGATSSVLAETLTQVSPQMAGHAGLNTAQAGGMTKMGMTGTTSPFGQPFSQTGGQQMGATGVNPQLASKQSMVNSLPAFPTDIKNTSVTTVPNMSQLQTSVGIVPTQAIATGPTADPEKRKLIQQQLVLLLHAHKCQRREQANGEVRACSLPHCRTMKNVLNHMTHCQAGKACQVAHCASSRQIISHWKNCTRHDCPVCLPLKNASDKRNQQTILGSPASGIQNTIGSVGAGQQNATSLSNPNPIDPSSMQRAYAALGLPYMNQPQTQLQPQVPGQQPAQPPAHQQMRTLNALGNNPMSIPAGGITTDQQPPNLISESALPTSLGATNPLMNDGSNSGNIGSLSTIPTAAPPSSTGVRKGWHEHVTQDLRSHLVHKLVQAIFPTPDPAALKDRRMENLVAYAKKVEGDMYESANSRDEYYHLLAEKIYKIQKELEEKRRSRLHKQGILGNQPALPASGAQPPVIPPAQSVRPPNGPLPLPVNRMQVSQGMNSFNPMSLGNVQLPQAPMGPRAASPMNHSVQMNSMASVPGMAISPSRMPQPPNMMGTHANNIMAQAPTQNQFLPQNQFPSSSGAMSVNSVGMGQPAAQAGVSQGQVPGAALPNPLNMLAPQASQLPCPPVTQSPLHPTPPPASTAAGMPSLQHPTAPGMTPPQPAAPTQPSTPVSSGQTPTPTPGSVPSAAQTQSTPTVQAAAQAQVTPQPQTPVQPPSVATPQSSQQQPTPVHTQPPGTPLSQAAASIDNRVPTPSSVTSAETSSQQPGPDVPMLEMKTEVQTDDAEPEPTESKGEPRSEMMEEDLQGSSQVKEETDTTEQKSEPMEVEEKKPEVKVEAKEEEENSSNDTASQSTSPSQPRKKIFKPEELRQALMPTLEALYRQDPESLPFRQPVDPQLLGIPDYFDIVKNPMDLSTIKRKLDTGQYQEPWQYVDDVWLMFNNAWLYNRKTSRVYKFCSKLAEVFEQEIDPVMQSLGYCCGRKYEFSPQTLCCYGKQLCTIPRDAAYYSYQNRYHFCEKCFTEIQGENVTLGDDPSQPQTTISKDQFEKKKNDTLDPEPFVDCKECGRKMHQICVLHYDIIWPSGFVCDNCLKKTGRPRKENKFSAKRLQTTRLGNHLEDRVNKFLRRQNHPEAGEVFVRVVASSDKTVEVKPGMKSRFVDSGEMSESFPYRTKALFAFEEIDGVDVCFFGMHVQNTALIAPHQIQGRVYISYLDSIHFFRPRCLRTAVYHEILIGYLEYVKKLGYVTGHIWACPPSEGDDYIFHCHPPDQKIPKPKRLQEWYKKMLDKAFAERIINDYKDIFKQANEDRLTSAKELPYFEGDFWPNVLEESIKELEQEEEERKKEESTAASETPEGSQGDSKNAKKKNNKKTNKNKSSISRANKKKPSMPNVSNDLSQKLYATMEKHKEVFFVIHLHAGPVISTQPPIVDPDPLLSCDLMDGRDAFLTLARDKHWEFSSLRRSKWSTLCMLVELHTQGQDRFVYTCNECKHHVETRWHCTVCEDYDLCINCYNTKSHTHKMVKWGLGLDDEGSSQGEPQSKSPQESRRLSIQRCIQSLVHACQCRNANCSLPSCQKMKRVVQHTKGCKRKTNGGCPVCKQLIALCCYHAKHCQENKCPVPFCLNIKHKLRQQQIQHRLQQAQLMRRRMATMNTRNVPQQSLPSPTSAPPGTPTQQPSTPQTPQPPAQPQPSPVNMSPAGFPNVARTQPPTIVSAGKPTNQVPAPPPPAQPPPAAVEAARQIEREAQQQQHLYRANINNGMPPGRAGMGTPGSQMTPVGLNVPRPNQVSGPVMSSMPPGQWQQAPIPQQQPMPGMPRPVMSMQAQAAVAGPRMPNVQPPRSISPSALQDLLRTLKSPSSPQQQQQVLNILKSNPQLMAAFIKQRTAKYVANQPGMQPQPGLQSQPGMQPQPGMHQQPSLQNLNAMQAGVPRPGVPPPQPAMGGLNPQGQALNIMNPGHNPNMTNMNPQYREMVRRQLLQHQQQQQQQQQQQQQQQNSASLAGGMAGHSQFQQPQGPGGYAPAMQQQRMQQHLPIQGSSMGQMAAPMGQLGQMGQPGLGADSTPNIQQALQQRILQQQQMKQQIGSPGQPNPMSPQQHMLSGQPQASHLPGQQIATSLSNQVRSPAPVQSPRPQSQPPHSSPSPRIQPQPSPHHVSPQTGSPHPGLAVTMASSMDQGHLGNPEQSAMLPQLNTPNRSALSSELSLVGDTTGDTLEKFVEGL
UniProt Q8BX09: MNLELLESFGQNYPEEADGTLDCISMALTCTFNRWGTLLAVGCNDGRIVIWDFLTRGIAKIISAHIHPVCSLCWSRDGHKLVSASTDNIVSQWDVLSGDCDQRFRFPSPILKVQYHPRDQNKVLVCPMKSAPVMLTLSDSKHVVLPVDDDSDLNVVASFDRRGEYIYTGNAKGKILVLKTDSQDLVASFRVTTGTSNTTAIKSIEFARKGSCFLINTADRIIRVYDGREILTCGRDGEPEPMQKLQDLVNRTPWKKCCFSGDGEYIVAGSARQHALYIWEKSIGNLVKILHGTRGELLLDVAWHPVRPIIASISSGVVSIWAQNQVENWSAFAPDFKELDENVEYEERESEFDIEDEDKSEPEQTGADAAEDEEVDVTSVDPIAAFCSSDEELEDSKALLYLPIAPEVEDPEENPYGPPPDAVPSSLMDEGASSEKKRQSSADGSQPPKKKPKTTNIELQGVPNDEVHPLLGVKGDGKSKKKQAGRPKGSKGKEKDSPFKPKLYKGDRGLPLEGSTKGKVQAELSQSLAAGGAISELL

T1: Snip1 (mouse (endogenous in NPCs)) (UniProt Q8BIZ6)
T1 sequence: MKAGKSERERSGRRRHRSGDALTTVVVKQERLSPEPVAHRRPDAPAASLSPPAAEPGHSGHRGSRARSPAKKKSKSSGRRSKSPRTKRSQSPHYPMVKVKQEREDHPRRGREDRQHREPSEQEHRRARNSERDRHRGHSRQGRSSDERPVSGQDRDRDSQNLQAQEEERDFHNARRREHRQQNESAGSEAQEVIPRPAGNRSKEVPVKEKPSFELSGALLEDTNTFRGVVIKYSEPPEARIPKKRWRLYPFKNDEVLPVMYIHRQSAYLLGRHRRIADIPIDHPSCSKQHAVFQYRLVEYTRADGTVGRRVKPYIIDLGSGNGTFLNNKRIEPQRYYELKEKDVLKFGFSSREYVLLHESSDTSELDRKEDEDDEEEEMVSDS

T2: Jarid2 (mouse (endogenous in NPCs)) (UniProt Q62315)
T2 sequence: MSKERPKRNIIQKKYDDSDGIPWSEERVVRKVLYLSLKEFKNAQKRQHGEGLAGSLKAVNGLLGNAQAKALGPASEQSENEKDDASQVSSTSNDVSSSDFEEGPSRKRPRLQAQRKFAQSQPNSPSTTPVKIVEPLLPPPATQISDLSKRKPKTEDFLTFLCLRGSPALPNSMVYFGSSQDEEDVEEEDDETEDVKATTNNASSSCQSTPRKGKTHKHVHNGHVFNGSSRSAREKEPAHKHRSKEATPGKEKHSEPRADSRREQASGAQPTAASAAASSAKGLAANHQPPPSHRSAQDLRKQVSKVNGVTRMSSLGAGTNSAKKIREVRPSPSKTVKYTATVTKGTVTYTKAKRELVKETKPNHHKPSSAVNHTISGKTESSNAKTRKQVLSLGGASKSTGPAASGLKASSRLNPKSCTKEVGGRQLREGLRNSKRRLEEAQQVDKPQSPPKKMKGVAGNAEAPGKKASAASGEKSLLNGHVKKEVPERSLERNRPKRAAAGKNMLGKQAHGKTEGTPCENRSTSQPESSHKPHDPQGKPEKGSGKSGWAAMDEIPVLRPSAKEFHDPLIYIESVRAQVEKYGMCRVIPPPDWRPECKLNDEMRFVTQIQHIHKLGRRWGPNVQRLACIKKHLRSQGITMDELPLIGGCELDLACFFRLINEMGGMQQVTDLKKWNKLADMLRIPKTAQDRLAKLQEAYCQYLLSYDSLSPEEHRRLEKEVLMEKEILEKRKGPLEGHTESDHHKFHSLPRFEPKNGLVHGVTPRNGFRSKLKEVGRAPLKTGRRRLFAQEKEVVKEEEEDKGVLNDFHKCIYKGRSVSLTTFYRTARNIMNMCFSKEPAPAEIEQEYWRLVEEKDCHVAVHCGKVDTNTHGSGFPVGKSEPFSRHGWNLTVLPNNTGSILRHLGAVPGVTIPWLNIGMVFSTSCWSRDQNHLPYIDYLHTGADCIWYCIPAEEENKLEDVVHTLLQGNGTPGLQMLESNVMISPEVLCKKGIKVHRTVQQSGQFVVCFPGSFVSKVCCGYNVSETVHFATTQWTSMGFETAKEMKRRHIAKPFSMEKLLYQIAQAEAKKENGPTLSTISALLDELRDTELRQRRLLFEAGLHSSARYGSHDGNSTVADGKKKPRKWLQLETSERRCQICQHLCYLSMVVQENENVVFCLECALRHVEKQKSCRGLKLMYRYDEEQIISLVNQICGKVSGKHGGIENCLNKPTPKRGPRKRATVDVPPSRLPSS


Experiments:
Assay in all cases: co-IP
[1] = biological target: T1, Snip1 (mouse (endogenous in NPCs))
[2] = biological target: T2, Jarid2 (mouse (endogenous in NPCs))
[3] = biological target: Ezh2 (mouse (endogenous in NPCs)) (UniProt Q61188)
[4] = biological target: p300 (mouse (endogenous in NPCs)) (UniProt B2RWS6)
[5] = biological target: Cbp (mouse (endogenous in NPCs)) (UniProt P45481)

Row | Molecule | binding [1] | binding [2] | binding [3] | binding [4] | binding [5]
1 | Ezh2 (from UniProt Q61188 1-746) | binds |  |  |  | 
2 | Rbbp5 (from UniProt Q8BX09 1-538) | no binding | no binding | no binding |  | 
3 | Snip1 (protein, UniProt Q8BIZ6 1-383) MKAGKSERERSGRRRHRSGDALTTVVVKQERLSPEPVAHRRPDAPAASLSPPAAEPGHSGHRGSRARSPAKKKSKSSGRRSKSPRTKRSQSPHYPMVKVKQEREDHPRRGREDRQHREPSEQEHRRARNSERDRHRGHSRQGRSSDERPVSGQDRDRDSQNLQAQEEERDFHNARRREHRQQNESAGSEAQEVIPRPAGNRSKEVPVKEKPSFELSGALLEDTNTFRGVVIKYSEPPEARIPKKRWRLYPFKNDEVLPVMYIHRQSAYLLGRHRRIADIPIDHPSCSKQHAVFQYRLVEYTRADGTVGRRVKPYIIDLGSGNGTFLNNKRIEPQRYYELKEKDVLKFGFSSREYVLLHESSDTSELDRKEDEDDEEEEMVSDS |  | binds | binds | no binding | no binding

Other lines, results leading:

Row | binding [1] | binding [2] | binding [3] | binding [4] | binding [5] | Molecule
4 | binds |  |  |  |  | Suz12 (from UniProt Q80U70 1-741)
5 | binds |  |  |  |  | Jarid2 (protein, UniProt Q62315 1-1234) MSKERPKRNIIQKKYDDSDGIPWSEERVVRKVLYLSLKEFKNAQKRQHGEGLAGSLKAVNGLLGNAQAKALGPASEQSENEKDDASQVSSTSNDVSSSDFEEGPSRKRPRLQAQRKFAQSQPNSPSTTPVKIVEPLLPPPATQISDLSKRKPKTEDFLTFLCLRGSPALPNSMVYFGSSQDEEDVEEEDDETEDVKATTNNASSSCQSTPRKGKTHKHVHNGHVFNGSSRSAREKEPAHKHRSKEATPGKEKHSEPRADSRREQASGAQPTAASAAASSAKGLAANHQPPPSHRSAQDLRKQVSKVNGVTRMSSLGAGTNSAKKIREVRPSPSKTVKYTATVTKGTVTYTKAKRELVKETKPNHHKPSSAVNHTISGKTESSNAKTRKQVLSLGGASKSTGPAASGLKASSRLNPKSCTKEVGGRQLREGLRNSKRRLEEAQQVDKPQSPPKKMKGVAGNAEAPGKKASAASGEKSLLNGHVKKEVPERSLERNRPKRAAAGKNMLGKQAHGKTEGTPCENRSTSQPESSHKPHDPQGKPEKGSGKSGWAAMDEIPVLRPSAKEFHDPLIYIESVRAQVEKYGMCRVIPPPDWRPECKLNDEMRFVTQIQHIHKLGRRWGPNVQRLACIKKHLRSQGITMDELPLIGGCELDLACFFRLINEMGGMQQVTDLKKWNKLADMLRIPKTAQDRLAKLQEAYCQYLLSYDSLSPEEHRRLEKEVLMEKEILEKRKGPLEGHTESDHHKFHSLPRFEPKNGLVHGVTPRNGFRSKLKEVGRAPLKTGRRRLFAQEKEVVKEEEEDKGVLNDFHKCIYKGRSVSLTTFYRTARNIMNMCFSKEPAPAEIEQEYWRLVEEKDCHVAVHCGKVDTNTHGSGFPVGKSEPFSRHGWNLTVLPNNTGSILRHLGAVPGVTIPWLNIGMVFSTSCWSRDQNHLPYIDYLHTGADCIWYCIPAEEENKLEDVVHTLLQGNGTPGLQMLESNVMISPEVLCKKGIKVHRTVQQSGQFVVCFPGSFVSKVCCGYNVSETVHFATTQWTSMGFETAKEMKRRHIAKPFSMEKLLYQIAQAEAKKENGPTLSTISALLDELRDTELRQRRLLFEAGLHSSARYGSHDGNSTVADGKKKPRKWLQLETSERRCQICQHLCYLSMVVQENENVVFCLECALRHVEKQKSCRGLKLMYRYDEEQIISLVNQICGKVSGKHGGIENCLNKPTPKRGPRKRATVDVPPSRLPSS
